Hit rate of the full screen: of about 300,000 compounds, about 3,700 (1.2%) were called active. Inconclusive means that the source gave no clear call. Such entries were picked first, then a sample of the others. The call rests on the fitted dose curve; tested in HEK293 cells. Potencies beside an inconclusive call are fits to weak or partial responses and may not hold up.
Test: qHTS for Inhibitors of binding or entry into cells for Lassa Virus; further: nearly all actives have a fitted effect of over 50% in size
Conditions: Lassa virus pseudotype entry inhibition, cell reporter; activity change, negative = inhibition: at 37.9 µM (top of the series) unless noted
On the % scale 0 is the no-effect control and ±100 the full control effect; potency means the concentration at half of the fitted maximal effect.

Row | SMILES | Potency | activity change, negative = inhibition
1 | COc1cc2c(cc1NCc1ccc3c(c1)OCO3)oc1ccccc12 | inconclusive: 35.5 µM [inhibitor, single point] | 
2 | COc1ccc(OC)c(S(=O)(=O)N(C)CC(=O)N2CCN(c3ccccc3F)CC2)c1 |  | inactive: -6.89%
3 | Cc1cc(NC(=O)CCC(=O)N(Cc2ccccc2)C(C(=O)NC2CCCC2)c2ccc(C)o2)no1 (configuration not stated) | inconclusive: 31.6 µM [inhibitor, partial curve, poor fit] | 
4 | C=C(C)[C@@H]1CC=C(CN2CCC(N3CCC(C(=O)N4CCCC4)CC3)CC2)CC1 | inconclusive: 14.1 µM [inhibitor, partial curve, poor fit] | 
5 | CCn1c(N)c(C(=O)Nc2ccccc2C(=O)OC)sc1=S |  | inactive: -6.92%
6 | CCS(=O)(=O)N1Cc2ccccc2CC1C(=O)OCC(=O)Nc1ccc(SC(F)F)cc1 (configuration not stated) | inconclusive: 6.51 µM [inhibitor, single point] | 
7 | COc1ccc(NC(=O)Cn2c(=O)oc3cc(S(=O)(=O)N4CCCCCC4)ccc32)cc1OC | inconclusive: 35.5 µM [inhibitor, single point] | 
8 | Cc1ccc2onc(CC(=O)N3CCN(c4cccc(Cl)c4)CC3)c2c1 | inconclusive: 35.5 µM [inhibitor, single point] | 
9 | O=C(N/N=C/c1ccc([N+](=O)[O-])cc1)c1cnccn1 | inconclusive: 17.8 µM [activator, single point] | 
10 | CNCCc1ccc(O)c(O)c1 |  | inconclusive: -1.69% [inhibitor]
11 | CN(CCOc1ccccc1)C(=O)c1ccc2c(c1)OCO2 |  | inactive: -0.86%
12 | O=C(CSc1nc2[nH]ncc2c(=O)n1-c1ccc(Cl)c(Cl)c1)NCc1ccccc1Cl | inconclusive: 1.41 µM [inhibitor, full curve, poor fit] | 
13 | Cc1cc(NC(=O)CCN2C(=O)/C(=C\c3ccccc3Cl)SC2=S)no1 |  | inactive: 0.718% [at 46.1 µM]
14 | COC(=O)c1ccc(CNC(=O)COC(=O)Cc2ccsc2)cc1 | inconclusive: 35.5 µM [activator, single point] | 
15 | Cc1ccc(NC(=O)NCc2cccnc2)cc1 |  | inactive: 13.8% [at 46.1 µM]
16 | Cc1cc2n(n1)CCC(=O)N2Cc1ccc(C(=O)Nc2cc(Cl)ccc2C)cc1 | inconclusive: 25.1 µM [activator, single point] | 
17 | CC(C)(C)c1ccc(NC(=O)CC2(C(F)(F)F)OCCO2)cc1 | inconclusive: 0.517 µM [activator, full curve, poor fit] | 
18 | COc1ccccc1C(=O)Nc1ccc2nc(SCC(=O)N3CCCc4ccccc43)sc2c1 | inconclusive: 15.8 µM [inhibitor, single point] | 
19 | Cc1ccc(S(=O)(=O)n2c3ccccc3c3nnc(C(=O)c4ccccc4)nc32)cc1 | inconclusive: 2.99 µM [activator, partial curve, poor fit] | 
20 | Cc1c(C(=O)Nc2ccccc2[N+](=O)[O-])csc1-c1ccccc1 | inconclusive: 35.5 µM [inhibitor, single point] | 
21 | CCOC(=O)c1ccc(N=Cc2nc3ccccc3n2C)cc1 |  | inactive: 10.8%
22 | CCOC(=O)c1c(NC(=O)COC(=O)Cc2ccccc2[N+](=O)[O-])sc(C(=O)N(C)C)c1C |  | inactive: 1.44%
23 | Cc1c(C(=O)OCC(=O)N2CC(C)CC(C)C2)oc2ccccc12 (configuration not stated) |  | inactive: -15.9%

Row | SMILES | Potency | activity change, negative = inhibition
24 | Cn1c(SCC(=O)c2ccccc2)nnc1-c1ccc(O)cc1 |  | inactive: 11.5%
25 | Cc1ccc(C)c(S(=O)(=O)c2nnn3c2nc(N2CCN(C)CC2)c2sccc23)c1 | inconclusive: 22.4 µM [inhibitor, single point] | 
26 | COc1ccc(CC(=O)NCC(c2cccs2)S(=O)(=O)c2ccc(F)c(C)c2)cc1 (configuration not stated) | inconclusive: 1.41 µM [inhibitor, full curve, poor fit] | 
27 | Cc1ccnc(NC(=O)CCS(=O)(=O)c2ccccc2)c1 |  | inactive: 2.51%
28 | Cc1c(N=C2C=C(Br)C(=O)C(Br)=C2)c(=O)n(-c2ccccc2)n1C |  | inactive: -8.79%
29 | O=C(Nc1ccc(Cl)cc1Cl)c1ccc2c(=O)n3c(nc2c1)CCC3 | inconclusive: 3.55 µM [activator, single point] | 
30 | Oc1[nH]c2ccccc2c1C1=NCCCC1 |  | inactive: 8.35%
31 | CCCCN(C(=O)C1CCC(CNS(=O)(=O)c2cccc3nsnc23)CC1)c1ccccc1 (configuration not stated) | inconclusive: 12.6 µM [inhibitor, single point] | 
32 | COC(=O)c1nn(-c2ccccc2)c(=O)cc1Sc1ccc(Cl)cc1 | inconclusive: 6.31 µM [inhibitor, partial curve, poor fit] | 
33 | COCCCNC(=S)NC1CC2CCCC(C1)N2Cc1cccs1 (configuration not stated) | inconclusive: 0.103 µM [inhibitor, full curve, poor fit] | 
34 | O=c1cc(N2CCc3ccccc3C2)[nH]c(=O)n1-c1ccc(Cl)cc1 | inconclusive: 6.51 µM [inhibitor, single point] | 
35 | Cc1ccc(C(=O)N/N=C/c2nc3ccccc3n2C)cc1 | inconclusive: 8.2 µM [inhibitor, partial curve] | 
36 | COC(=O)c1cc(Br)c(=O)n(CCN2CCCCC2)c1 |  | inactive: -1.16%
37 | CS(=O)(=O)N(CC(=O)N1CCCC1)c1ccccc1Br | inconclusive: 7.94 µM [activator, partial curve, poor fit] | 
38 | Cc1cccc(-n2c(SCc3ccc(C#N)cc3)nnc2-c2c[nH]c3ccccc23)c1 | inconclusive: 14.6 µM [inhibitor, partial curve] | 
39 | Cc1ccc(NC(=O)C2CCN(S(=O)(=O)c3ccc4c(c3)NC(=O)C(C)S4)CC2)cc1C (configuration not stated) | inconclusive: 22.4 µM [inhibitor, single point] | 
40 | COc1ccc(N/C=C(\C#N)c2ccc(OCCCF)cc2)cc1 |  | inactive: -4.23%
41 | CCOC(=O)c1c(/N=C/c2c(O)n(-c3ccccc3F)c(=S)[nH]c2=O)sc2c1CCCC2 |  | inactive: 4.98%
42 | CCC(=O)Nc1ccc(Cl)c(-c2nc3ccccc3[nH]2)c1 |  | inactive: 5.7% [at 46.1 µM]
43 | CN1CCN(CC(=O)Nc2c(C(=O)c3ccccc3)oc3ccccc23)CC1 | inconclusive: 35.5 µM [inhibitor, single point] | 
44 | Cc1ccc(C(=O)Nn2cnnc2)cc1[N+](=O)[O-] | inconclusive: 10.3 µM [activator, partial curve, poor fit] | 
45 | COc1ccc(-c2cc(C(=O)N3CCN(c4ccc(F)cc4)CC3)no2)cc1 | inconclusive: 3.55 µM [inhibitor, single point] | 
46 | Cc1cc(NCCCn2ccnc2)n2ncc(-c3ccccc3)c2n1 | active: 4.47 µM | 

Quoted from the listing.
Oc1[nH]c2ccccc2c1C1=NCCCC1 – activity change, negative = inhibition: inactive: 8.35%
O=c1cc(N2CCc3ccccc3C2)[nH]c(=O)n1-c1ccc(Cl)cc1 – Potency: inconclusive: 6.51 µM [inhibitor, single point]

Additional results.

Row | SMILES | Potency | activity change, negative = inhibition
47 | Cc1c(C(=O)OC2CCCCC2)[nH]c2c1C(=O)CC(c1ccc(F)cc1)C2 (configuration not stated) | inconclusive: 15.8 µM [activator, single point] | 
48 | Cc1ccc(-n2c(-c3ccc(Br)cc3)c[n+]3c2CCc2ccc4cccnc4c2-3)cc1 | active: 6.51 µM | 
49 | CN(C(=O)c1ccccc1C(=O)OCC(=O)NC(=O)NC(C)(C)C)C1CCCCC1 |  | inactive: 6.6%
50 | COC(=O)[C@@]1(Cc2ccc(F)cc2)[C@H]2c3cc(C(=O)N(C)C)n(Cc4ccc(OC(F)(F)F)cc4)c3C[C@H]2CN1C(=O)c1ccccc1 | inconclusive: 29.1 µM [inhibitor, single point] | 
51 | COc1ccc2cc(C3C(C#N)=C(N)OC(C)=C3C(C)=O)c(Cl)nc2c1 (configuration not stated) |  | inactive: 21.3%
52 | Cc1ccc2oc(C(=O)N(C)CCC(O)c3ccccc3)c(C)c2c1 (configuration not stated) | inconclusive: 35.5 µM [inhibitor, single point] | 
53 | Cc1cccc(N2CCN(C(=O)c3ccc(S(=O)(=O)N(C)c4ccccc4)cc3)CC2)c1C | active: 4.47 µM | 
54 | CCCN(CC(=O)Nc1cc(Cl)ccc1Cl)C(=O)c1ccc(N2CCCC2=O)cc1 | inconclusive: 35.5 µM [inhibitor, single point] | 
55 | CCOc1cc(N2CCOCC2)c(OCC)cc1NC(=O)c1cc(C)cc(C)c1 | inconclusive: 3.16 µM [inhibitor, partial curve, poor fit] | 
56 | O=S1(=O)c2ccccc2N(Cc2cccc(F)c2)c2ccccc21 |  | inactive: 0.528% [at 46.1 µM]
57 | COC(=O)C1=C(N)N(c2ccc(F)cc2)C2=C(C(=O)CCC2)C1c1ccc2c(c1)OCO2 (configuration not stated) | inconclusive: 4.47 µM [inhibitor, full curve, poor fit] | 
58 | Clc1cnc(Oc2ccc(Oc3ncc(Cl)cc3Cl)cc2)c(Cl)c1 | inconclusive: 0.082 µM [activator, full curve, poor fit] | 
59 | CCOC(=O)c1[nH]c(=O)[nH]c1CSc1nc(C)cc(C)n1 |  | inactive: 9.71%
60 | Clc1ccc(CCNc2nc3cc(Cl)c(Cl)cc3n3cnnc23)cc1 |  | inactive: 2.14% [at 46.1 µM]
61 | Cc1cccc2sc(N(CCCN(C)C)C(=O)CCc3ccccc3)nc12 | inconclusive: 35.5 µM [inhibitor, partial curve, poor fit] | 
62 | Cc1ccccc1Cn1c(-c2cncs2)nc2ccccc21 | inconclusive: 35.5 µM [activator, single point] | 
63 | Cc1cccc(N2CCN(C(=O)c3ccc4c(c3)N(Cc3ccccc3)C(=O)c3ccccc3S4(=O)=O)CC2C)c1 (configuration not stated) | inconclusive: 1.41 µM [inhibitor, full curve, poor fit] | 
64 | Cc1ccc(-c2nc(S(=O)(=O)c3ccc(C)cc3)c(SCC(N)=O)o2)cc1 | inconclusive: 10 µM [inhibitor, partial curve, poor fit] | 
65 | COc1ccc(/C=N/NC(=S)Nc2cccc(C(=O)O)c2)cc1OC | inconclusive: 22.4 µM [inhibitor, partial curve, poor fit] | 
66 | CCCC(c1nnnn1C(C)(C)CC)N(Cc1ccco1)Cc1cc2ccc(OC)cc2[nH]c1=O (configuration not stated) | inconclusive: 1.26 µM [activator, single point] | 
67 | O=C(COc1ccc2ccccc2c1CN1CCOCC1)N1CCc2ccccc21 | inconclusive: 20.6 µM [inhibitor, single point] | 

Three entries already listed, ordered by length of the SMILES, smallest number first:
Row | SMILES | Potency | activity change, negative = inhibition
61 | Cc1cccc2sc(N(CCCN(C)C)C(=O)CCc3ccccc3)nc12 | inconclusive: 35.5 µM [inhibitor, partial curve, poor fit] | 
48 | Cc1ccc(-n2c(-c3ccc(Br)cc3)c[n+]3c2CCc2ccc4cccnc4c2-3)cc1 | active: 6.51 µM | 
63 | Cc1cccc(N2CCN(C(=O)c3ccc4c(c3)N(Cc3ccccc3)C(=O)c3ccccc3S4(=O)=O)CC2C)c1 (configuration not stated) | inconclusive: 1.41 µM [inhibitor, full curve, poor fit] | 

Reference: PubChem BioAssay AID540256 (National Center for Advancing Translational Sciences (NCATS), 2011)
